No constants are given. Whether binding was seen depends on the method and setting. Binding seen in cells or lysates may run through a third protein. Some entries that bind do so weakly or less than the wild type.

Amino acid sequences for entries named in this document (tags omitted).
UniProt Q16186: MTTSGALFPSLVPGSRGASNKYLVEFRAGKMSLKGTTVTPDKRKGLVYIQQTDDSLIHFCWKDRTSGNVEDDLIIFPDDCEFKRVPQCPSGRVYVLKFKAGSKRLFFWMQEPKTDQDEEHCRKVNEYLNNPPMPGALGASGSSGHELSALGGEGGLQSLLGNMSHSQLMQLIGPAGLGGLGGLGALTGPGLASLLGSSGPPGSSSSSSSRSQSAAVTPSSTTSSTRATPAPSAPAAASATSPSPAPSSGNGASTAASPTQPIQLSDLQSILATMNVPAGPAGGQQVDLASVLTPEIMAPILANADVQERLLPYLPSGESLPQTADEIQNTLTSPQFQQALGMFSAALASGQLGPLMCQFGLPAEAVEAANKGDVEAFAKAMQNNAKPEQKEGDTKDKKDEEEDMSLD

The values below come from article PMC8677766.

For the test, the target named is hRpt3 (a proteasome ATPase subunit) (human (endogenous in RPMI 8226)) (UniProt P43686). The experiment in a line: co-IP; RPMI 8226 WT cell lysate (1 mg) with anti-hRpt3 or rabbit IgG overnight at 4 °C, Dynabeads protein G; three washes with 1% Triton-TBS lysis buffer; immunoblot for hRpn13, hRpn2, hRpt3. On the technique in general: Immunoblotting shows a protein as a band on a membrane.

For the substance “hRpn13 full-length protein (from UniProt Q16186 1-407)”, the binding entry was “binds”.
